From article PMC3402432
Results are given in words; binding and its absence hold for the method and conditions named. Binding can be weak; no strength is given. For some assays here: Tags and fused reporters may be left off the sequences shown. For some assays here: Binding seen in cells or lysates may run through a third protein.

Columns and labels:
[1] = target: GST-E7-Flag fusion protein of HPV10 E7 (human papillomavirus type 10 (HPV10)); assay: pull-down; 20 ug purified GST-E7-Flag incubated with 400 ug HaCaT lysate overnight at 4 C in binding buffer (20 mM Tris HCl pH 7.5, 0.6 mM EDTA, 70 mM NaCl, 0.01% NP-40, protease inhibitors); glutathione sepharose 4B 2 h at 4 C, five washes; immunoblot for pRb and GST; only the target purified
[2] = target: GST-E7-Flag fusion protein of HPV10 E7 (human papillomavirus type 10 (HPV10)); assay: pull-down; 20 ug purified GST-E7-Flag incubated with 0.5 ug recombinant His-pRb overnight at 4 C in binding buffer (20 mM Tris HCl pH 7.5, 0.6 mM EDTA, 70 mM NaCl, 0.01% NP-40, protease inhibitors); glutathione sepharose 4B 2 h at 4 C, five washes; immunoblot for pRb, His and GST; both purified

Binder | binding [1] | binding [2]
retinoblastoma protein (pRb), endogenous in HaCaT keratinocytes (protein, UniProt P06400 1-928) MPPKTPRKTAATAAAAAAEPPAPPPPPPPEEDPEQDSGPEDLPLVRLEFEETEEPDFTALCQKLKIPDHVRERAWLTWEKVSSVDGVLGGYIQKKKELWGICIFIAAVDLDEMSFTFTELQKNIEISVHKFFNLLKEIDTSTKVDNAMSRLLKKYDVLFALFSKLERTCELIYLTQPSSSISTEINSALVLKVSWITFLLAKGEVLQMEDDLVISFQLMLCVLDYFIKLSPPMLLKEPYKTAVIPINGSPRTPRRGQNRSARIAKQLENDTRIIEVLCKEHECNIDEVKNVYFKNFIPFMNSLGLVTSNGLPEVENLSKRYEEIYLKNKDLDARLFLDHDKTLQTDSIDSFETQRTPRKSNLDEEVNVIPPHTPVRTVMNTIQQLMMILNSASDQPSENLISYFNNCTVNPKESILKRVKDIGYIFKEKFAKAVGQGCVEIGSQRYKLGVRLYYRVMESMLKSEEERLSIQNFSKLLNDNIFHMSLLACALEVVMATYSRSTSQNLDSGTDLSFPWILNVLNLKAFDFYKVIESFIKAEGNLTREMIKHLERCEHRIMESLAWLSDSPLFDLIKQSKDREGPTDHLESACPLNLPLQNNHTAADMYLSPVRSPKKKGSTTRVNSTANAETQATSAFQTQKPLKSTSLSLFYKKVYRLAYLRLNTLCERLLSEHPELEHIIWTLFQHTLQNEYELMRDRHLDQIMMCSMYGICKVKNIDLKFKIIVTAYKDLPHAVQETFKRVLIKEEEYDSIIVFYNSVFMQRLKTNILQYASTRPPTLSPIPHIPRSPYKFPSSPLRIPGGNIYISPLKSPYKISEGLPTPTKMTPRSRILVSIGESFGTSEKFQKINQMVCNSDRVLKRSAEGSNPPKPLKKLRFDIEGSDEADGSKHLPGESKFQQKLAEMTSTRTRMQKQKMNDSMDTSNKEEK | binds | 
purified recombinant His-pRb (protein, UniProt P06400 1-928) MPPKTPRKTAATAAAAAAEPPAPPPPPPPEEDPEQDSGPEDLPLVRLEFEETEEPDFTALCQKLKIPDHVRERAWLTWEKVSSVDGVLGGYIQKKKELWGICIFIAAVDLDEMSFTFTELQKNIEISVHKFFNLLKEIDTSTKVDNAMSRLLKKYDVLFALFSKLERTCELIYLTQPSSSISTEINSALVLKVSWITFLLAKGEVLQMEDDLVISFQLMLCVLDYFIKLSPPMLLKEPYKTAVIPINGSPRTPRRGQNRSARIAKQLENDTRIIEVLCKEHECNIDEVKNVYFKNFIPFMNSLGLVTSNGLPEVENLSKRYEEIYLKNKDLDARLFLDHDKTLQTDSIDSFETQRTPRKSNLDEEVNVIPPHTPVRTVMNTIQQLMMILNSASDQPSENLISYFNNCTVNPKESILKRVKDIGYIFKEKFAKAVGQGCVEIGSQRYKLGVRLYYRVMESMLKSEEERLSIQNFSKLLNDNIFHMSLLACALEVVMATYSRSTSQNLDSGTDLSFPWILNVLNLKAFDFYKVIESFIKAEGNLTREMIKHLERCEHRIMESLAWLSDSPLFDLIKQSKDREGPTDHLESACPLNLPLQNNHTAADMYLSPVRSPKKKGSTTRVNSTANAETQATSAFQTQKPLKSTSLSLFYKKVYRLAYLRLNTLCERLLSEHPELEHIIWTLFQHTLQNEYELMRDRHLDQIMMCSMYGICKVKNIDLKFKIIVTAYKDLPHAVQETFKRVLIKEEEYDSIIVFYNSVFMQRLKTNILQYASTRPPTLSPIPHIPRSPYKFPSSPLRIPGGNIYISPLKSPYKISEGLPTPTKMTPRSRILVSIGESFGTSEKFQKINQMVCNSDRVLKRSAEGSNPPKPLKKLRFDIEGSDEADGSKHLPGESKFQQKLAEMTSTRTRMQKQKMNDSMDTSNKEEK |  | binds
